Record: PubChem BioAssay AID504808 (Drosophila RNAi Screening Center, 2011)

- Purpose: 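Genes whose loss lifts activity of an E2F-responsive reporter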 (primary screen)
- Cell system: Drosophila S2 cells
- Reagents: long dsRNA against Drosophila genes
- Measured: 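Dual luciferase plate measurements; E2F-specific signal taken as firefly over Renilla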
- Scale: E2F firefly: higher = more E2F reporter activity; Renilla normaliser: higher = more normaliser reporter signal
- Rule for the call: 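Called active if the normalised E2F reporter went up by over 50%; the cutoff is arbitrary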
The deposit covers about 21,000 reagents; below is an unselected part of those that have a named target and a result. Over the whole deposit, 18 (0.084%) got an active call. 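Raw counts without plate normalisation, one of two replicates; the ratio scores behind the calls were not deposited.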 Unmarked entries are inactive. Not stated in the record: the amount of reagent, the time to read-out.

gene,dsRNA,"E2F firefly, rep 1","Renilla normaliser, rep 1"
CG1137,DRSC12529,1.55e5,6442
Cyp12a5,DRSC16621,1.51e5,7796
shtd,DRSC20166,8141,800
CG4362,DRSC15567,1.53e5,8326
CG10725,DRSC09788,78360,3334
LysS,DRSC08677,1.02e5,4078
tHMG2,DRSC16182,1.04e5,5986
ProRS-m,DRSC08261,99090,3817
nrv1,DRSC03382,88722,3757
CG7857,DRSC10925,1.56e5,7962
Osi19,DRSC12569,1.25e5,6753
pes,DRSC03033,1.31e5,5238
NAT1,DRSC06854,3205,198
Usf,DRSC18129,1.04e5,5681
CG2070,DRSC06814,1.21e5,4531
CG32191,DRSC10522,1.74e5,9008
Sgf11,DRSC09987,1.79e5,8599
CIAPIN1,DRSC03559,84442,3730
sdt,DRSC17555,68185,1825
sdt,DRSC17556,93529,2462
sdt,DRSC17860,1.13e5,5880
sdt,DRSC17861,52971,3947
sdt,DRSC18022,1.07e5,5006
sdt,DRSC18025,27067,3008
sdt,DRSC18026,31385,3644
sdt,DRSC18027,56792,4395
sdt,DRSC18108,1.52e5,6912
toy,DRSC17222,2034,996
RhoGEF3 (retired record),DRSC08266,79590,3487
RhoGEF3 (retired record),DRSC08353,89619,4132
Snap29,DRSC04721,91595,4584
sut1,DRSC07700,2825,189
CG7272,DRSC10795,1.59e5,7371
l(2)37Bb,DRSC02088,87154,4184
